{"source": "patent US11382929B2", "about": "“Compositions and methods to treat disease” (REGENTS OF THE UNIVERSITY OF MINNESOTA, priority 2019, dated 2022)", "key": {"MCF-7": {"test_system": "MCF-7", "assay": "MTT cytotoxicity in 2D monolayer cell culture", "assay_type": "cell-based", "settings": "Homo sapiens, MCF7; MCF-7, 24 h treatment", "description": "(§1) Cytotoxicity in 2D Monolayer Cell Culture A mouse breast cancer cell line EMT-6 (ATCC, Manassas, Va.), two human breast cancer cell lines MDA-MB-231(ATCC) and MCF-7(ATCC), and one human glioma cancer cell line T98G(ATCC) were used in standard MTT assays (T. Mosmann, J Immunol Methods 65(1-2) (1983) 55-63) to test the cytotoxicity of PAHM polymers with different molecular weight and concentration after 24 and 48 h of treatment. D ox-HCl was also tested for comparison. All of the four cancer cell lines were incubated in corresponding cell culture media, EMT-6 media (DMEM high glucose, 10% FBS, 100 U/mL penicillin/streptomycin), T98G and MDA-MB-231 media (DMEM low glucose, 10% FBS, 100 U/mL penicillin/streptomycin), MCF-7 media (DMEM low glucose, 10% FBS, insulin, 100 U/mL penicillin/streptomycin), at 37° C., and a humidified atmosphere containing 5% CO2.\n(§2) The MTT assay of PAHM polymers and Dox-HCl on EMT-6 cells exemplified the general experimental procedures. EMT-6 cells were seeded into 96-well plates at 5000 cells/well and cultured for 20 h in EMT-6 media at 5% CO2 and 37° C. Afterwards polymers of various molecular weight and concentrations were added to the cells and cultured for 24 h or 48 h. MTT in PBS (5 mg/mL, 20 μL) was then added to each well, reaching a final concentration of 0.5 mg/mL. After 4 h, unreacted MTT was removed by aspiration. The formazan crystals were dissolved in 150 μL of DMSO, and the absorbance was measured at 570 nm using a Bio-Tek Synergy HT plate reader. Cell viability was calculated by [absorbance of cells exposed to polymers]/[absorbance of cells cultured without polymers] in percentage. Cell images were captured before MTT was added using an Olympus IX70 […] microscope under polarized light."}, "MDA-MB-231": {"test_system": "MDA-MB-231", "assay": "MTT cytotoxicity in 2D monolayer cell culture", "assay_type": "cell-based", "settings": "Homo sapiens", "description": "as §1, §2"}}, "data": [{"smiles": "COc1cccc2c1C(=O)c1c(O)c3c(c(O)c1C2=O)C[C@@](O)(C(=O)CO)C[C@@H]3O[C@H]1C[C@H](N)[C@H](O)[C@H](C)O1", "note": "[Dox, doxorubicin]", "values": [{"measurement": "IC50", "setting": "MCF-7", "result": 30, "unit": "µg/mL"}, {"measurement": "IC50", "setting": "MDA-MB-231; MDA-MB-231, 48 h", "result": 5, "unit": "µg/mL"}, {"measurement": "IC50", "setting": "MDA-MB-231; MDA-MB-231, 24 h treatment", "result": "10 to 15", "unit": "µg/mL"}]}]}
